# Results as given in the supplement of paper PMC4862054.
# Small differences around the control level are noise.
# Assays:
# Experiment in all cases: normalised response (% of control), CellTox Green; higher = less cell death (100 = DMSO, 0 = benzethonium chloride kill control)
# Conditions in all cases: incubation time: 72 h
# [1] = system: MDA-MB-436
# Procedure: (§1)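 DSRT, 72 h incubation, CellTox Green / CellTiter-Glo readout. Signal is normalised to DMSO and benzethonium chloride controls. Value is the normalised response at the lowest tested concentration.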
# [2] = system: MCF-10A
# Procedure: as §1
# [3] = system: CAL-120
# Procedure: as §1
# [4] = system: CAL-85-1
# Procedure: as §1
# [5] = system: CAL-148
# Procedure: as §1
# [6] = system: CAL-51
# Procedure: as §1
# [7] = system: HCC1599
# Procedure: as §1
# [8] = system: HCC1937
# Procedure: as §1
# [9] = system: HDQ-P1
# Procedure: as §1
# [10] = system: HCC1143
# Procedure: as §1
# [11] = system: MDA-MB-231
# Procedure: as §1
# [12] = system: MDA-MB-468
# Procedure: as §1
# [13] = system: BT-474
# Procedure: as §1
# [14] = system: DU-4475
# Procedure: as §1
# [15] = system: Hs578T
# Procedure: as §1
# [16] = system: MFM-223
# Procedure: as §1
# [17] = system: MDA-MB-453
# Procedure: as §1
# [18] = system: BT-549
# Procedure: as §1
SMILES,normalised response [1] [%],normalised response [2] [%],normalised response [3] [%],normalised response [4] [%],normalised response [5] [%],normalised response [6] [%],normalised response [7] [%],normalised response [8] [%],normalised response [9] [%],normalised response [10] [%],normalised response [11] [%],normalised response [12] [%],normalised response [13] [%],normalised response [14] [%],normalised response [15] [%],normalised response [16] [%],normalised response [17] [%],normalised response [18] [%]
CC1(C)CNc2cc(NC(=O)c3cccnc3NCc3ccncc3)ccc21 [Motesanib] (1 nM),61.6,91.4,99.3,103,103,115,102,107,100,118,103,77.9,99.3,90.5,88.1,96,–,–
CS(=O)(=O)c1ccc(C(=O)Nc2ccc(Cl)c(-c3ccccn3)c2)c(Cl)c1 [Vismodegib] (1 nM),78,103,98.3,97.5,75.6,117,88.2,72.9,51.3,80.5,93.9,104,84.5,96.4,81.7,101,103,98.1
Cc1c(Cn2c(C)nc3c(C(=O)O)cc(N4CCOCC4)cc32)cccc1C(F)(F)F (1 nM),109,114,104,101,110,114,123,117,88.8,117,111,82.7,92.5,115,121,102,110,99
CNC(=O)c1cccc(-c2ccc3c(N4CCOC[C@@H]4C)nc(N4CCOC[C@@H]4C)nc3n2)c1 [AZD2014] (1 nM),83.5,109,101,96.9,98,129,110,110,82.4,93.5,118,70.3,88.3,103,105,102,105,77.7
C[C@]12CC[C@@H]3c4ccc(OC(=O)N(CCCl)CCCl)cc4CC[C@H]3[C@@H]1CC[C@@H]2O [Estramustine] (1 nM),97.5,90,94.7,102,61.2,111,97.6,81.3,52.3,92.8,93.2,130,97.5,96.4,56.5,94.1,99.4,99.6
CC(C)(C)NC(=O)[C@H]1CC[C@H]2[C@@H]3CC[C@H]4NC(=O)C=C[C@]4(C)[C@H]3CC[C@]12C [Finasteride] (1 nM),66.5,104,99.8,108,102,116,89.8,109,77.9,118,102,58.4,98.7,104,84.5,83.2,104,99.3
CN(C)C[C@@H]1CCn2cc(c3ccccc32)C2=C(C(=O)NC2=O)c2cn(c3ccccc23)CCO1 [Ruboxistaurin] (1 nM),93,104,99.4,105,100,113,89.5,71,99.6,112,98.5,96.3,97.9,101,94.4,84.6,96.1,99.3
CS(=O)(=O)c1ccc(C2=C(c3ccccc3)C(=O)OC2)cc1 [Rofecoxib] (1 nM),99.8,111,106,95.4,88,88.2,110,110,86.8,127,120,101,101,108,73.4,–,110,92.8
COc1cc2c(Oc3ccc4[nH]c(C)cc4c3F)ncnc2cc1OCCCN1CCCC1 [Cediranib] (0.1 nM),76.7,86,96.1,104,81.6,120,97.5,91.6,100,120,99.2,72.7,102,98.6,90.8,94.3,110,83.3
Clc1ccc(Nc2nnc(Cc3ccncc3)c3ccccc23)cc1 [Vatalanib] (1 nM),82.8,105,98.8,99.6,93.6,103,105,89,101,118,94.3,94.1,106,101,84.7,102,103,97.6

# Part of the list above, showing only normalised response [11] [%] and normalised response [9] [%].
SMILES | normalised response [11] [%] | normalised response [9] [%]
CS(=O)(=O)c1ccc(C(=O)Nc2ccc(Cl)c(-c3ccccn3)c2)c(Cl)c1 [Vismodegib] (1 nM) | 93.9 | 51.3
CN(C)C[C@@H]1CCn2cc(c3ccccc32)C2=C(C(=O)NC2=O)c2cn(c3ccccc23)CCO1 [Ruboxistaurin] (1 nM) | 98.5 | 99.6
